In article PMC3510498 one finds binding data, which are given here for 1 substance.

The target of this experiment is Thermoanaerobacter tengcongensis RecO (Thermoanaerobacter tengcongensis MB4) (UniProt Q8RB48). The experiment can be described thus: SEC + AUC; SEC: Superdex-200, 0.5 ml/min, 50 mM Tris-HCl pH 7.5, 300 mM NaCl, 200 µg/ml; AUC: 20°C, 1 mg/ml in 5 mM Tris-HCl pH 7.5, 50 mM NaCl, 60 000 rpm (TTERecR, TTERecO) or 55 000 rpm (TTERecOR complex), SEDFIT; both purified.

Results are given in words; binding and its absence hold for the method and conditions named.

As to “Thermoanaerobacter tengcongensis RecO (from UniProt Q8RB48 1-247)”, the binding result is “no binding”.
